At least one structure is not confirmed: it was looked up by name or label, or the drawing left a doubt.
System: carrageenan induced rat paw edema
Test: carrageenan induced rat paw edema model (anti-inflammatory activity)
Format: in vivo, Wistar rats
Details: 100 mg/kg p.o.; 2 hr and 4 hr
Excerpt: Animals: Wistar rats (male 150-200 g) of both sex and Laca mice (male, 25-35 g) procured from Central Animal House, Punjab University, Chandigarh, India were used. Animals were housed under standard laboratory conditions and maintained on rat chow, Animals were allowed free access to food and water until used and fasted 24 hr prior to studies.
Experimental conditions: Unless otherwise stated, the following conditions were employed in all experiments. The test compounds were suspended in 0.5% carboxymethylcellulose (CMC) and administered per orally (p.o.). Control animals were given the corresponding amount of vehicle (0.5%, CMC).
Anti-inflammatory activity (Table 1): Anti-inflammatory activity was determined by using carrageenan induced rat paw edema model. […]
Paw edema in rats (various modifications and various irritants) is the most widely used method for testing acute and subacute inflammation. […] The volume of the injected paw is measured before and after application of the irritant and the paw volume of the treated animals is compared to the control. […]
The paracetamol (1) and synthesized NO-releasing derivatives (12 and 13) were administered p.o. at a dose of 100 mg/kg, p.o., emulsified in 0.5% sodium carboxy methyl cellulose (0.5% sodium CMC). Anti-inflammatory activity was determined by using carrageenan induced rat paw edema model. […]

## CC(=O)Nc1ccc(OCCCCCO[N+](=O)[O-])cc1 [Compound 13, N-[4-(5-Nitrooxy-pentoxy)-phenyl]-acetamide]
  anti-inflammatory activity (in words): good anti-inflammatory activity

— patent US8207222B2, “Nitric oxide releasing derivatives of paracetamol” (Council of Scientific and Industrial Research, priority 2007, dated 2012)
